The values that follow come from patent publication US20120107330A1 (published 2012).

Sequences of proteins named here, by UniProt entry; tags and fusion partners are left off. A change or cut given only in a name is not applied to a line headed by its entry. Residues count along the entry.
UniProt P07724, residues 25-608: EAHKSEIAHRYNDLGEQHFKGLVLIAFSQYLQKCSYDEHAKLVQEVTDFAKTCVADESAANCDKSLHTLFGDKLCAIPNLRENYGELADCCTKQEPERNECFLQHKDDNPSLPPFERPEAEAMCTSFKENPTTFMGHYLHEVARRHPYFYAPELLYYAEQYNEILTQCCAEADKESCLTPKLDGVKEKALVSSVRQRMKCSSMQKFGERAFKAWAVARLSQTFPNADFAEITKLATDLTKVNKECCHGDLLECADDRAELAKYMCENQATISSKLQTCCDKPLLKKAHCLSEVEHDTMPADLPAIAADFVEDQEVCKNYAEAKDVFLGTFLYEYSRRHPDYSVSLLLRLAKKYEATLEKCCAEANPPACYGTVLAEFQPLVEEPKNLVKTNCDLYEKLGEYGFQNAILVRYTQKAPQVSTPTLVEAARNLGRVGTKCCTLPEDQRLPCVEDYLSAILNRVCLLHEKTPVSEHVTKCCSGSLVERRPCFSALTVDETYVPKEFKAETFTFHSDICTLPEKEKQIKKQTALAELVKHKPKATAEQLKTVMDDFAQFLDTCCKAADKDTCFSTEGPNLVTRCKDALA
UniProt P19438: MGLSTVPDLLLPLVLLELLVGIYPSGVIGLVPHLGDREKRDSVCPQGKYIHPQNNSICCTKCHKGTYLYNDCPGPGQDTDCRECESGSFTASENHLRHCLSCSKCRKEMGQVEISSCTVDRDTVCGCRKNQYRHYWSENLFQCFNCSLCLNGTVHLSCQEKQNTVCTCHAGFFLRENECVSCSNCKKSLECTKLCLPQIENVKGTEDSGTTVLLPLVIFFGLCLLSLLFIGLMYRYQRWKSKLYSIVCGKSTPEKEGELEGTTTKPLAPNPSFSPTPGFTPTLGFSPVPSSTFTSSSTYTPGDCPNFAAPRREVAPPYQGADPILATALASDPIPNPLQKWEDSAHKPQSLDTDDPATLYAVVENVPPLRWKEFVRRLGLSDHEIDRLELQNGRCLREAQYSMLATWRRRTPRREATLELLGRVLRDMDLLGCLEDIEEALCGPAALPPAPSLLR

In assay [1] the target is T1, mouse TNFR1 (recombinant, R&D Systems cat no. 425-R1-050/CF, biotinylated) (mouse) (UniProt P25118).
T1 sequence (biotinylated with EZ-Link NHS-LC-LC-biotin, looked up): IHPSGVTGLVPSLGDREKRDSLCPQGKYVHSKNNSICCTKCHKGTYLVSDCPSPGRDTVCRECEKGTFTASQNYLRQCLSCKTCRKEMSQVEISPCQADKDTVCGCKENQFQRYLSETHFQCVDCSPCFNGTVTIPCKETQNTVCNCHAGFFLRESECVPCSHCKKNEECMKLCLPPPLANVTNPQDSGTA
The assay can be described thus: BIAcore, mouse TNFR1 on chip. (SPR reads the build-up and loss of mass on a sensor chip optically.)

For assay [2], the target named is T1, mouse TNFR1 (recombinant, R&D Systems cat no. 425-R1-050/CF, biotinylated) (mouse). The assay can be described thus: BIAcore, mouse TNFR1 on SA chip.
Assay [3] shares this target. Nature of the assay: BIAcore, mouse TNFR1 on SA chip, dAb at 1 µM.
Assay [4] has the same target. The assay can be described thus: BIAcore, mouse TNFR1 on SA chip, after DOM1m-21-23 as competitor.
The target is the same in assay [5]. Nature of the assay: BIAcore, biotinylated mouse TNFR1 on SA chip, dAb at 1 µM.
Assay [6] has the same target. Nature of the assay: BIAcore, biotinylated mouse TNFR1 on SA chip, dAb injected alone and after DOM1m-21-23 (concentrations not given).
Assay [7] addresses T2, mouse serum albumin (MSA, Sigma-Aldrich) (mouse, UniProt P07724 25-608).
T2 construct: also called mouse albumin
Nature of the assay: BIAcore off-rates, MSA on chip, AlbudAb in the fusion.

The target of assay [8] is T2, mouse serum albumin (MSA, Sigma-Aldrich). The assay can be described thus: BIAcore, MSA coupled to CM5 chip (EDC/NHS), construct at 1 µM.
The target of assay [9] is T1, mouse TNFR1 (recombinant, R&D Systems cat no. 425-R1-050/CF, biotinylated) (mouse). The assay can be described thus: BIAcore, biotinylated mouse TNFR1 on SA chip (concentration not given).
Assay [10] addresses TNFR1-Fc fusion (R&D Systems Cat #372-RI) (human) (UniProt P19438). Nature of the assay: receptor binding assay: TNFR1-Fc on beads incubated with the dAb, then with TNFα (blocked ligand); % inhibition of TNFα binding to TNFR1.
Assay [11] has the same target. Nature of the assay: receptor binding assay: TNFR1-Fc on anti-IgG beads, dAb titrated, blocked ligand TNFα detected with biotinylated anti-TNFα and fluorescent streptavidin (FMAT).

Substitutions are numbered along the chain they refer to. Results are given in words; binding and its absence hold for the method and conditions named. Some results given as binding are weak or reduced against the parent protein; the word gives no strength. Ends that are not written are not given here.

B1: DOM1h-574-16 (other)
VH: EVQLLESGGGLVQPGGSLRLSCAASGFTFVKYSMGWVRQAPGKGPEWVSQISNTGDRTYYADSVKGRFTISRDNSKNTLYLQMNSLRAEDTAVYYCAIYTGRWEPFDYWGQGTLVTVSS
notes: VH dAb; also called DOM1h-57-16 [sic]; the DOM0100 dAb
Regarding B1, the binding result in assay [1], in assay [2], in assay [3], in assay [4], in [5] and in assay [6] was “binds” throughout.

B2: DOM1h-574-109 (other)
VH: B1 VH with P45L, N53D, G55A, D62H, E104V, D107E
notes: VH dAb
Turning to B2, the binding result in assay [2] is “binds”.

B3: DOM1h-574-135 (other)
VH: B1 VH with P45L, N53D, G55A, A61T, D62H, E104V, D107E
notes: VH dAb
As to B3, the binding entry in assay [2] was “binds”.

B4: DOM1h-574-156 (other)
VH: B1 VH with V30F, P45L, N53D, G55A, D62H, E104V, D107E
notes: VH dAb
As to B4, in assay [2], the binding result is listed as “binds”.

B5: DOM1h-574-138 (other)
VH: B1 VH with V30F, P45L, N53D, G55A, D62H, E104A, D107E
notes: VH dAb
As to B5, the binding result in assay [2] is given as “binds”.

B6: DOM1h-574-72 (other)
VH: B1 VH with P45L, G55A, D62H, E104V, D107E
notes: VH dAb; expressed in E. coli, purified on Protein A
For B6, the binding entry in assay [2] is “binds”.

B7: DOM1h-574-133 (other)
VH: B1 VH with P45L, N53D, G55A, A61D, D62H, D107V
notes: VH dAb
B7: in assay [2], the binding entry is given as “binds”.

B8: DOM1h-574-139 (other)
VH: B1 VH with V30L, P45L, N53D, G55A, D62H, E104A, D107E
notes: VH dAb
With B8, in assay [2], the binding entry is on record as “binds”.

B9: DOM1h-574-162 (other)
VH: B1 VH with V30F, P45L, N53D, G55A, A61S, D62H, E104V, D107E
notes: VH dAb
Take B9: in assay [2], the binding result is on record as “binds”.

B10: DOM1h-574-155 (other)
VH: B1 VH with V30L, P45L, N53D, G55A, D62H, E104V, D107E
notes: VH dAb
As for B10, the binding result in [2] is reported as “binds”.

B11: DMS0191 (bispecific antibody)
chain: EVQLLESGGGLVQPGGSLRLSCAASGFTFVKYSMGWVRQAPGKGPEWVSQISNTGDRTYYADSVKGRFTISRDNSKNTLYLQMNSLRAEDTAVYYCAIYTGRWEPFDYWGQGTLVTVSSASTDIQMTQSPSSLSASVGDRVTITCRASQSIIKHLKWYQQKPGKAPKLLIYGASRLQSGVPSRFSGSGSGTDFTLTISSLQPEDFATYYCQQGTRWPQTFGQGTKVEIKRAAAEQKLISEEDLN
notes: anti-TNFR1 dAb / AlbudAb in-line fusion
As for B11, the binding result in [7] and in [8] was “binds” throughout.

B12: DOM1m-21-23 (other)
VH: EVQLLESGGGLVQPGGSLRLSCAASGFTFNRYSMGWLRQAPGKGLEWVSRIDSYGRGTYYEDPVKGRFSISRDNSKNTLYLQMNSLRAEDTAVYYCAKISQFGSNAFDYWGQGTQVTVSS
notes: VH dAb; also called DOM1m-12-23 [sic]
In the case of B12, in [9], the binding entry is on record as “binds”.

B13: DOM1h-131-511 (other)
VH: EVQLLESGGGLVQPGGSLRLSCAASGFTFAHETMVWVRQAPGKGLEWVSHIPPVGQDPFYADSVKGRFTISRDNSKNTLYLQMNSLRAEDTAVYYCALLPKRGPWFDYWGQGTLVTVSS
notes: also called control dAb
On to B13, for which the binding result in [10] and in [11] was “binds” in each case.
